According to patent publication US12637687B2, “Nucleic acid molecules, polypeptides having epoxy group-removing catalytic activity and use thereof” (SHANDONG AGRICULTURAL UNIVERSITY, priority 2020, dated 2026):

Assay: In vitro enzymatic reaction system of ThFhb7 polypeptide (DON + GSH, LC-HRMS)
Assay type: biochemical
Method: The optimal conditions for the in vitro enzymatic reaction system of ThFhb7 polypeptide were established by gradient experiments of three different factors affecting the enzymatic reaction: • (1) the gradient of reaction enzyme amounts: 1 μg, 5 μg, 10 μg, 25 μg, and 50 μg; • (2) the pH gradient set with various buffers: ranging from 3.0 to 10.0, disodium hydrogen phosphate-citric acid buffer (pH=3.0, 4.0, 5.0), disodium hydrogen phosphate-potassium dihydrogen phosphate buffer (pH=6.0, 7.0), and Tris-phosphate buffer (pH=8.0, 9.0, 10.0); and • (3) the gradient of reaction temperatures: 4° C., 12° C., 15° C., 20° C., 25° C., 30° C., 37° C., 45° C., and 50° C.
The reaction was performed in a phosphate buffer (PBS) (pH=7.0), at 25° C. for 12 h, and samples were taken at 0 h, 0.5 h, 1 h, 3 h, and 6 h respectively for LC-HRMS analysis; through the area results of first-level scanning of LC-HRMS, the changes in the amounts of the two substances, DON as the reaction substrate and the GSH adduct as the reaction product, were obtained with proceeding of reaction, so as to obtain the optimal enzyme amount for the reaction, as shown in FIGS. 14A and 14B. […]

B1: ThFhb7: de-epoxidase from Thinopyrum ponticum; polypeptide having epoxy group-removing catalytic activity, amino acid sequence SEQ ID NO: 36, gene SEQ ID NO: 1 (protein, listed as Elytrigia ponticum)
chain: MATSASTSTPIIPTAIAGAPPVAGTCCAVAPTLSALALAPLAVPTTTTTVLMPAISSVAASLAVPACALPAAGSAPATLPIIHAPATASLVGASPAIAATLGATTPASGAGALPPPGLLATAVGAAMPGLLIPLSGIAASPGLAATAAPASAVAAAPTAHVGLMVHGLPLAPATAAVTLAGPVAAAGLSSTAALGMVGGAAALMMGSLAAMLGALAALPALAASGPPLLGGAATTAAMIVGGTLAMMAATLPVSGTGGAAACHGAIPGGLHAALALTAGVL
optimal test enzyme amount (PBS pH=7.0, 25° C., DON-GSH produced stable above this amount): 25 µg
pH of the buffer at which the amount of product DON-GSH reached the highest value (pH gradient 3.0 to 10.0): 6.0
